Literature values in patent US9107446B2, “Solubilizates of preservatives and method for producing the same” (AQUANOVA AG, priority 2006, dated 2015).
Some entries share one result that the patent states for a list of compounds.

Conditions: pH=2.8-3.5, classic non-alcoholic drinks; cited from earlier work

In the case of O=C(O)c1ccccc1 [Benzoic Acid], the undissociated portion is given as 90-100%.
